Values are the deposited “Percent Effect”, in %.
How 0% and 100% were set is not recorded. Most values in the screen are low, and negative values occur.
The compounds are a random part of those screened.
Two or more numbers in one place are separate tests of the same structure; such repeats can differ widely.

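Phenotypic screen: M. tuberculosis growth, glucose 7H9 medium, 3 days; the read-out is not stated. Tested at 50 µM. Higher reads as more growth inhibition (inferred: compounds with an IC50 in retests scored well above the rest). Size under these conditions: about 69,000 compounds, about 760 of them at 50% or above in at least one test.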

- O=C(c1ccco1)N1CCOCC2(C1)CN(c1ccccc1)C(=O)CO2 (stereo not given) : -6.992%
- CN(CCSc1ccccc1)C(=O)C(c1cccnc1)N1CCOCC1 (stereo not given) : -46.82%
- CCOc1ccc(C(F)(F)F)cc1NC(=O)NCc1noc(C)n1 : 13.64%
- COc1ccnc(N2CCN(CC(O)CN3CCOCC3)CC2)n1 (stereo not given) : 25.59%
- CC(Oc1ccc2c(c1)OCO2)C(=O)Nc1ccon1 (stereo not given) : 6.679%
- COCCn1cc(C(=O)N2CCCC2c2ccc(F)cc2)ccc1=O (stereo not given) : -24.4%
- CCCC(=O)N(CCN1CCOCC1)c1nc2c(OC)ccc(C)c2s1.Cl : 24.34% and 20.79%
- CN(C)C[C@H]1C[C@@H](CO)CN(C(=O)c2cc(=O)[nH]c3cc(F)ccc23)C1 : -41.03%
- CCn1cc(CN2CCCC(CO)(CCc3ccccc3)C2)c(C)n1 (stereo not given) : 28.25%
- O=C(Cc1ccc(-n2cnnn2)cc1)Nc1cnn(CC(F)F)c1 : -0.1852% and -16.52%
- COc1cccc(CC(=O)N2CC[C@@H](OC)[C@@H]2Cc2cccnc2)c1.O=C(O)C(F)(F)F : -2.094%
- CS(=O)(=O)NCC1CCCN(C(=O)COc2ccc(F)cc2)C1 (stereo not given) : -13.81%
- CC(C)NC(=O)N1CCCC(c2nnc(CN3CCOCC3)n2C)C1 (stereo not given) : -16.66%
- Cc1nc(CC(=O)N2CCCC2c2nc(C(C)C)no2)cs1 (stereo not given) : -5.362%
- Cc1cc(N2CCC(C(=O)NC3CC3)CC2)nc(-c2ccncc2)n1 : 5.571%
- Cc1cccc(CN2CCN(c3nc(CO)cs3)CC2)c1 : -1.053% and 13.99%
- Cc1cc(C)n(CC2CN(Cc3nc(-c4ccco4)no3)CCO2)n1 (stereo not given) : 4.849%
- COc1cc(C(=O)NCC2CCCO2)nc2c(C)cc(F)cc12 (stereo not given) : 26.13%
- Cc1ccc(NS(=O)(=O)c2cnn(Cc3ccccc3)c2)c(C(=O)O)c1 : 24.57%
- c1cc(-c2cn[nH]c2)ccc1CN1CCCCC1 : 3.676%
- CCS(=O)(=O)CCCOc1nc(-c2ccccc2Cl)no1 : 4.63%
- CSCC(=O)N1CCC(c2nccn2Cc2cscn2)CC1 : -15.3%
- Cl.O=C(CCC1CCCC1)NCCn1nc(C2CCNC2)c2cccnc21 (stereo not given) : 10.18%
- CC(C)=CCC1(C(=O)O)CCCN(c2ccnc(C)n2)C1 (stereo not given) : 18.75%
- O=C(O)c1cn(CC2CCCN(c3nc4ccccc4s3)C2)nn1 (stereo not given) : 5.651% and 5.178%
- O=C(CSc1ccc2c(c1)OCCO2)NS(=O)(=O)c1ccccc1F : 2.112%
- O=C(NCc1nn(-c2ccccc2)c2c1CCC2)NCC1COCCO1 (stereo not given) : 14.64%
- Cn1cc(Br)c(=O)c(NS(=O)(=O)c2cc(F)ccc2Cl)c1 : -4.788%
- COCCC(=O)N1CCC2(CN(Cc3cccc(F)c3)C2)C1 : -21.41%
- O=C(O)C(F)(F)F.[H][C@@]12CCN(C(=O)c3ccccc3)[C@@]1([H])CC(=O)N2CCN1CCOCC1 : 14.23%
- CCNC(=O)C1CCCN(C(=O)Nc2ccc3c(c2)CCCN3C)C1 (stereo not given) : -2.982%
- NC(=O)C(NCc1cccs1)c1ccccc1 (stereo not given) : -38.12% and -3.277%
- CNc1ncc(CN2CCC(c3nnsc3S(C)(=O)=O)CC2)cn1 : -10.49%
- Cc1c(C(=O)NCCCC(N)=O)sc2ccc(F)cc12 : -1.223%
- CCOCCNC(=O)c1cccnc1Sc1cc(OC)ccc1OC : -5.811%
- CCO[C@@H]1CO[C@@]2(CCCN(S(=O)(=O)c3ccccc3)C2)C1 : 22.78%
- c1ccc(C2CCCN(c3cncc(-n4cccn4)n3)CC2)cc1 (stereo not given) : 17.84% and 18.72%
- Cc1cccc(COc2ccc(C(C)NS(N)(=O)=O)cc2)c1 (stereo not given) : 35.82%
- CCc1ncnc2c1CCN(S(=O)(=O)CC)CC2 : -5.477%
- Cc1cc(CN2CCN(c3ccc4nncn4n3)CC2)no1 : 6.714%
- COCCN1CCC12CCN(C(=O)Cc1cccs1)C2.O=C(O)C(F)(F)F (stereo not given) : -4.921% and 7.192%
- CCN(CC)CC1CCN(C(=O)CCn2cccn2)CC1 : -24.83%
- CN(CCCc1cnn(C)c1)C(=O)C1CCC(=O)N(C2CCCC2)C1 (stereo not given) : -39.67% and -2.26%
- CCc1nnc2n1CCN(CCC(=O)Nc1sccc1C#N)C2 : -0.2193%
- Cc1ccsc1CNC(=O)CC1CN(C(=O)OC(C)(C)C)C1 : -2.048%
- CCN(CC)C(=O)c1nnsc1-c1ccccc1 : 2.025% and -18.07%
- O=C(O)C(F)(F)F.O=C(O)C(F)(F)F.[H][C@@]12CCN(Cc3ccncc3)C[C@@]1([H])O[C@@H](C(=O)NC)C2 : 9.529%
- CC(C)CN1CCNC(=O)C12CCN(C(=O)c1ccccn1)CC2 : 13.02%
- CC(C)[C@@H]1CN(C(=O)C2(c3ccccc3)CCN(C)CC2)C[C@H]1N(C)C : 7.796% and -2.178%
- O=C(O)C(F)(F)F.[H][C@]12CCN(Cc3ccco3)C[C@@]1([H])OCCN(C(=O)c1ccsc1)C2 : 18.61%
- NC(=O)CCNC(=O)NCC1(c2ccccc2Cl)CCC1 : 6.993%
- CNc1nc(C)c(C(=O)N2C[C@@H](C(=O)O)[C@H](C3CC3)C2)s1 : -9.279%
- CCC(C(=O)NC)N(c1cccc(C)c1)S(C)(=O)=O (stereo not given) : 1.06%
- O=C(c1cccnc1)N1CCCC(c2cc(C(F)F)n3ncnc3n2)C1 (stereo not given) : -9.786%

The values are deposited in ChEMBL (CHEMBL3988442, “University of Dundee, Small-Polar-MMV Screening Library” (2021)).